Among all 330,000 compounds or so, about 100 (0.03%) were called active. The shares of active, inactive and inconclusive entries below differ from those in the screen. Calls come from the whole dose curve; as a rule, active = well fitted inhibition curve with a large enough effect; inconclusive = small, poorly fitted or top-dose-only effect; inactive = flat fitted curve, though single readings scatter. A potency beside an inconclusive call is a rough fit, not a confirmed value.
Test system: Chaperonin Mm-Cpn (Methanococcus maripaludis)
Experiment: Inhibitors of TCP-1 ring complex (TRiC) of Methanococcus maripaludis (MmCpn): qHTS; note: nearly all actives have a fitted effect of over 80% in size;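 for potency: enzyme at 25 nM with ATP substrate at 10 µM during the reaction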
Details: purified Mm-Cpn ATPase, ADP Transcreener TR-FRET; activity, negative = inhibition: at the top concentration
Procedure, shortened: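 Compound-treated chaperonin, 25 nM final, turns over 10 uM ATP at 37°C for 30 min following a 10 min preincubation; ADP generated competes with ADP-d2 for Eu-cryptate antibody, lowering FRET.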
% is set by controls: 0 for no effect and ±100 for the full control effect; potency is the fitted concentration of half-maximal effect.

SMILES | activity, negative = inhibition | Potency
CCN(C[C@H]1N[C@@](C)(C(=O)OC)[C@H]2C(=O)N(Cc3ccccc3)C(=O)[C@@H]12)C(=O)Nc1ccccc1 | inactive: -0.523% | –
CC(C(=O)Nc1cccnc1)c1ccc([N+](=O)[O-])cc1 (centres undefined) | – | inconclusive: 63.1 µM [inhibitor, single point]
O=C(Cc1ccc(S(=O)(=O)N2CCOCC2)s1)NCC1CCCCC1 | – | inconclusive: 100 µM [inhibitor, single point]
Oc1ccccc1Nc1ccccn1 | – | inconclusive: 17.8 µM [inhibitor, single point]
Cc1nc(SCc2nc3ccc(Br)cc3[nH]2)c2oc3ccccc3c2n1 | – | inconclusive: 100 µM [inhibitor, single point]
CCOC(=O)C1CCCN(CCC(=O)Nc2c(C(=O)OC)[nH]c3cc(OC)ccc23)C1 (centres undefined) | inactive: 0.0232% | –
COc1ccccc1CNC(=O)c1cc2sccc2n1C | – | inconclusive: 20 µM [inhibitor, single point]
Cc1ccc(C)c(S(=O)(=O)Nc2ccc(S(=O)(=O)Nc3onc(C)c3C)cc2)c1 | inactive: 1.46% | –
Cc1nc(-c2coc3cc(OCC(=O)O)ccc3c2=O)cs1 | inactive: 1.09% | –
CCN(CC(=O)Nc1cc(OC)ccc1OC)Cc1nc2ccccc2c(=O)[nH]1 | – | inconclusive: 63.1 µM [inhibitor, single point]
Cc1ccc(Cn2c(SCC(=O)N3CC(=O)Nc4ccccc43)nc3ccccc3c2=O)cc1 | – | inconclusive: 282 µM [inhibitor, partial curve, poor fit]
Cc1cccc(C(=O)NC2CCN(C(=O)NCc3ccccc3)CC2)c1 | – | inconclusive: 5.62 µM [inhibitor, single point]
O=C(CCCC(=O)OCC(=O)c1cccs1)Nc1ccc(Oc2ccccc2)cc1 | – | inconclusive: 891 µM [inhibitor, partial curve, poor fit]
COc1ccccc1-c1sc2ccccc2c1-c1ccccc1OC | – | active: 56.2 µM
Cc1ccc(C2=CC(C)(c3ccc(C)cc3)Nc3nc(C(F)(F)F)nn32)cc1 (centres undefined) | – | inconclusive: 100 µM [inhibitor, single point]
O=C(NCc1ccccc1)C(=O)NCC(c1ccco1)N1CCN(c2ccccc2F)CC1 (centres undefined) | inactive: -0.509% | –
COc1ccc(-c2nn(-c3ccccc3)cc2C(=O)NCC2CCCO2)cc1 (centres undefined) | – | inconclusive: 20 µM [inhibitor, single point]
COc1ccccc1CNC(=O)C1CCC(CNc2c(N3CCCCC3)c(=O)c2=O)CC1 (centres undefined) | – | inconclusive: 100 µM [inhibitor, single point]
Nc1ccc2nc(-c3cc(Cl)c(N)c(Cl)c3)[nH]c2c1 | – | inconclusive: 100 µM [inhibitor, partial curve, poor fit]

Some of the entries so far, tab-delimited.
SMILES	activity, negative = inhibition	Potency
Cc1cccc(C(=O)NC2CCN(C(=O)NCc3ccccc3)CC2)c1	–	inconclusive: 5.62 µM [inhibitor, single point]
Nc1ccc2nc(-c3cc(Cl)c(N)c(Cl)c3)[nH]c2c1	–	inconclusive: 100 µM [inhibitor, partial curve, poor fit]

Source: PubChem BioAssay AID504842 (National Center for Advancing Translational Sciences (NCATS), 2011)
